Data reported in article PMC5535931.
Results are given in words; binding and its absence hold for the method and conditions named. Binding seen in cells or lysates may run through a third protein. A yes stands for co-enrichment or nearness to the bait. Other partners may have been found. Tags and fused reporters may be left off the sequences shown.

Chains of the proteins cited; added tags and fusions are not shown.
UniProt Q15910: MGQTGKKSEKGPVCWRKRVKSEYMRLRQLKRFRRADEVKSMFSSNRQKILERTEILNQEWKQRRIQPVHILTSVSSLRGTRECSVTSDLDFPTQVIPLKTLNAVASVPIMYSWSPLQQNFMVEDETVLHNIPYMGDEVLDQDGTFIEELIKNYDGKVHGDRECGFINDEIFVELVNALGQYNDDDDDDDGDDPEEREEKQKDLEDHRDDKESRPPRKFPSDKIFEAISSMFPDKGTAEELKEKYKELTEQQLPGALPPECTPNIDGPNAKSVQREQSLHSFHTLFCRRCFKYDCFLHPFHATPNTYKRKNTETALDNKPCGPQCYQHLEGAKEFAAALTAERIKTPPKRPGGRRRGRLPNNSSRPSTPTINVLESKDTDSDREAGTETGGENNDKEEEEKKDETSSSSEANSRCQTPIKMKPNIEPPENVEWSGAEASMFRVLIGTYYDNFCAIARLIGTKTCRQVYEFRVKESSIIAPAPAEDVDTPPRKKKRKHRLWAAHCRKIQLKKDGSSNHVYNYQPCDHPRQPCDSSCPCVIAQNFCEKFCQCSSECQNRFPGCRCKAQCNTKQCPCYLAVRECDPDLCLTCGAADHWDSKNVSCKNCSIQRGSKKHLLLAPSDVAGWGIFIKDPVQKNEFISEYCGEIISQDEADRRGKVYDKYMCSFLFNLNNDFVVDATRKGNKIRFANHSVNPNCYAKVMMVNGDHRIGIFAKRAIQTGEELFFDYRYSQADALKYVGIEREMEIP
UniProt P21333: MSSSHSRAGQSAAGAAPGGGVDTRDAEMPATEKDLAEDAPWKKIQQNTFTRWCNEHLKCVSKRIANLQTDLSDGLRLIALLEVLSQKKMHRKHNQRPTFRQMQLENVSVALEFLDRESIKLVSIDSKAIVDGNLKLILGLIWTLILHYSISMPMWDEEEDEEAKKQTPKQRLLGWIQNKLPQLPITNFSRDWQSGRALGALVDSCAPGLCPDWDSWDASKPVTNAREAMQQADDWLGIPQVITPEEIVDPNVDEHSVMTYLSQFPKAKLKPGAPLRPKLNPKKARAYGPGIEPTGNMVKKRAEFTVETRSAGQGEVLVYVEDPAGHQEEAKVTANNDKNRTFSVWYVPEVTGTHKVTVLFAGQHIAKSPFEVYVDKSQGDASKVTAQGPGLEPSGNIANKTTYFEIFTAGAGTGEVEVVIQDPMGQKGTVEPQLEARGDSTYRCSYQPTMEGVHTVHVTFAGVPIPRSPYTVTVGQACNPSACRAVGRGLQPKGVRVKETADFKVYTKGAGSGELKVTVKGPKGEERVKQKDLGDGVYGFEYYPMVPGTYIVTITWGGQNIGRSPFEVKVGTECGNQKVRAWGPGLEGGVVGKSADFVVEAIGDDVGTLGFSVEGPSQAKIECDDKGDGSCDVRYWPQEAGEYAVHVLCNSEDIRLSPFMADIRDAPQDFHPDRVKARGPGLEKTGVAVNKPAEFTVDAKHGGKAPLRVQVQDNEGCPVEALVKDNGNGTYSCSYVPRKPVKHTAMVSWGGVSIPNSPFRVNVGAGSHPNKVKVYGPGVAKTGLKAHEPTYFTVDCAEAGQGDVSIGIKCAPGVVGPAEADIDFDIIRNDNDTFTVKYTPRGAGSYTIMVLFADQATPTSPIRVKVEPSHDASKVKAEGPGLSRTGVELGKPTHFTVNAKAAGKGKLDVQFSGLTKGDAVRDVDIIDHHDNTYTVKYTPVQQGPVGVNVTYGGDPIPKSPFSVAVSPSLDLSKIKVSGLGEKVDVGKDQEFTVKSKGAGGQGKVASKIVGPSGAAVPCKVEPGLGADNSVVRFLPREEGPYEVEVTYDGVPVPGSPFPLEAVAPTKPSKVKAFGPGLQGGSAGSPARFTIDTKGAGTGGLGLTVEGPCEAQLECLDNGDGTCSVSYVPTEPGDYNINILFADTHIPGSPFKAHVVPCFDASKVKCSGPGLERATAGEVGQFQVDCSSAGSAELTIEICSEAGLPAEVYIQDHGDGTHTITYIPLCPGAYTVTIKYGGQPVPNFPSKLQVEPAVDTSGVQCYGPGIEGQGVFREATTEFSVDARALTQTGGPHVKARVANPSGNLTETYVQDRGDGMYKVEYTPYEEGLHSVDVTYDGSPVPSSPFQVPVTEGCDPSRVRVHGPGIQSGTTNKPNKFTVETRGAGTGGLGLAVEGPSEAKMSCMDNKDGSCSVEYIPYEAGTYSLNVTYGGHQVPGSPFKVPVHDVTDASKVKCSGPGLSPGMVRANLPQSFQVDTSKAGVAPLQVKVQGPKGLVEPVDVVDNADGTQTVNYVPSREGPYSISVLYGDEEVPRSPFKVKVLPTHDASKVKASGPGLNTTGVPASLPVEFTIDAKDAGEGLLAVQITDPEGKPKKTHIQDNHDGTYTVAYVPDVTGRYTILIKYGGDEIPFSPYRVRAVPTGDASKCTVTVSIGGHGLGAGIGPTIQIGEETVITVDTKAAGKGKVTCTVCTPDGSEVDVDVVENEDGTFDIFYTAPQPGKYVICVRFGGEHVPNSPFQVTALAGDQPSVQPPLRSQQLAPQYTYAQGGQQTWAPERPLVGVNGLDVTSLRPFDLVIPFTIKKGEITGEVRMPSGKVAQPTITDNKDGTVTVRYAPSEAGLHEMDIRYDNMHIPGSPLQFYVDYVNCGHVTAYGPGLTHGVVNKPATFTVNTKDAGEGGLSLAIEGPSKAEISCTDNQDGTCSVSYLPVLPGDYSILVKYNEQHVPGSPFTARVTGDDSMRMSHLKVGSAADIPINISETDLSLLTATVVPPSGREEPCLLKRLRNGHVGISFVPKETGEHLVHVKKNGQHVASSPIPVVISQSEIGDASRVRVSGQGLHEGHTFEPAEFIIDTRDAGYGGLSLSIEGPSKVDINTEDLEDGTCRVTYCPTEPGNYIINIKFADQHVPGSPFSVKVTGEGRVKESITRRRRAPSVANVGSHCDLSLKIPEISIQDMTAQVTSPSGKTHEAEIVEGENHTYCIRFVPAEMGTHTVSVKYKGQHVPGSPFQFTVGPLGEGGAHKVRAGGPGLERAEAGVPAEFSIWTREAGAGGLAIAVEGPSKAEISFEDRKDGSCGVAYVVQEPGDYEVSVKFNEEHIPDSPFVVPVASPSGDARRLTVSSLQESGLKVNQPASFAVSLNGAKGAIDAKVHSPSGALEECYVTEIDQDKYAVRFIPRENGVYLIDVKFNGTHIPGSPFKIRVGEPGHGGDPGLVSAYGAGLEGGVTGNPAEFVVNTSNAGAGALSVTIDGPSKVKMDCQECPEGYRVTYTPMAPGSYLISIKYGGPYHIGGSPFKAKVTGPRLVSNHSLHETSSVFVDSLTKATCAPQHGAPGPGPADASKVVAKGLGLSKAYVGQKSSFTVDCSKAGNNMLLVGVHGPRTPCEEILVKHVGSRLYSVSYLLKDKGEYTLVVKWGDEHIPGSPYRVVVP
UniProt Q9Y483: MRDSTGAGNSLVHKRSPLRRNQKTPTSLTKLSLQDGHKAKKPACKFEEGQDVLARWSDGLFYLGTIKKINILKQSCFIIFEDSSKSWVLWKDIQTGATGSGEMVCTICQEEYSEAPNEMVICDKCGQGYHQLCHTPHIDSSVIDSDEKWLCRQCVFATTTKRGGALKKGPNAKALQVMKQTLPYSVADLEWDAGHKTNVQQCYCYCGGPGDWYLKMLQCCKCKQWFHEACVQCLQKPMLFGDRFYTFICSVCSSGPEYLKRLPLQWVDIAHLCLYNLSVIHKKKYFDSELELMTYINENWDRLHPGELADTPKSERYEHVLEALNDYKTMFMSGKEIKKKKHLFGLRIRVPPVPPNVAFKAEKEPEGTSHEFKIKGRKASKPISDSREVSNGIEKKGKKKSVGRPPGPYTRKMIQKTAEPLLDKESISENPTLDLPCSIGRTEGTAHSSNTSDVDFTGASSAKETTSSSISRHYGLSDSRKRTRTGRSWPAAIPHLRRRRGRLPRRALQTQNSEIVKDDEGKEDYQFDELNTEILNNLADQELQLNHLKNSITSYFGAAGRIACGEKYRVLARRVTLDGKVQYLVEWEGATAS
UniProt P05387: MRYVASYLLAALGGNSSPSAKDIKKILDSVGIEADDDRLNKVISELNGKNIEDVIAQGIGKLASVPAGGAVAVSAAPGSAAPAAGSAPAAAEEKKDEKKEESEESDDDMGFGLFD
UniProt Q01082: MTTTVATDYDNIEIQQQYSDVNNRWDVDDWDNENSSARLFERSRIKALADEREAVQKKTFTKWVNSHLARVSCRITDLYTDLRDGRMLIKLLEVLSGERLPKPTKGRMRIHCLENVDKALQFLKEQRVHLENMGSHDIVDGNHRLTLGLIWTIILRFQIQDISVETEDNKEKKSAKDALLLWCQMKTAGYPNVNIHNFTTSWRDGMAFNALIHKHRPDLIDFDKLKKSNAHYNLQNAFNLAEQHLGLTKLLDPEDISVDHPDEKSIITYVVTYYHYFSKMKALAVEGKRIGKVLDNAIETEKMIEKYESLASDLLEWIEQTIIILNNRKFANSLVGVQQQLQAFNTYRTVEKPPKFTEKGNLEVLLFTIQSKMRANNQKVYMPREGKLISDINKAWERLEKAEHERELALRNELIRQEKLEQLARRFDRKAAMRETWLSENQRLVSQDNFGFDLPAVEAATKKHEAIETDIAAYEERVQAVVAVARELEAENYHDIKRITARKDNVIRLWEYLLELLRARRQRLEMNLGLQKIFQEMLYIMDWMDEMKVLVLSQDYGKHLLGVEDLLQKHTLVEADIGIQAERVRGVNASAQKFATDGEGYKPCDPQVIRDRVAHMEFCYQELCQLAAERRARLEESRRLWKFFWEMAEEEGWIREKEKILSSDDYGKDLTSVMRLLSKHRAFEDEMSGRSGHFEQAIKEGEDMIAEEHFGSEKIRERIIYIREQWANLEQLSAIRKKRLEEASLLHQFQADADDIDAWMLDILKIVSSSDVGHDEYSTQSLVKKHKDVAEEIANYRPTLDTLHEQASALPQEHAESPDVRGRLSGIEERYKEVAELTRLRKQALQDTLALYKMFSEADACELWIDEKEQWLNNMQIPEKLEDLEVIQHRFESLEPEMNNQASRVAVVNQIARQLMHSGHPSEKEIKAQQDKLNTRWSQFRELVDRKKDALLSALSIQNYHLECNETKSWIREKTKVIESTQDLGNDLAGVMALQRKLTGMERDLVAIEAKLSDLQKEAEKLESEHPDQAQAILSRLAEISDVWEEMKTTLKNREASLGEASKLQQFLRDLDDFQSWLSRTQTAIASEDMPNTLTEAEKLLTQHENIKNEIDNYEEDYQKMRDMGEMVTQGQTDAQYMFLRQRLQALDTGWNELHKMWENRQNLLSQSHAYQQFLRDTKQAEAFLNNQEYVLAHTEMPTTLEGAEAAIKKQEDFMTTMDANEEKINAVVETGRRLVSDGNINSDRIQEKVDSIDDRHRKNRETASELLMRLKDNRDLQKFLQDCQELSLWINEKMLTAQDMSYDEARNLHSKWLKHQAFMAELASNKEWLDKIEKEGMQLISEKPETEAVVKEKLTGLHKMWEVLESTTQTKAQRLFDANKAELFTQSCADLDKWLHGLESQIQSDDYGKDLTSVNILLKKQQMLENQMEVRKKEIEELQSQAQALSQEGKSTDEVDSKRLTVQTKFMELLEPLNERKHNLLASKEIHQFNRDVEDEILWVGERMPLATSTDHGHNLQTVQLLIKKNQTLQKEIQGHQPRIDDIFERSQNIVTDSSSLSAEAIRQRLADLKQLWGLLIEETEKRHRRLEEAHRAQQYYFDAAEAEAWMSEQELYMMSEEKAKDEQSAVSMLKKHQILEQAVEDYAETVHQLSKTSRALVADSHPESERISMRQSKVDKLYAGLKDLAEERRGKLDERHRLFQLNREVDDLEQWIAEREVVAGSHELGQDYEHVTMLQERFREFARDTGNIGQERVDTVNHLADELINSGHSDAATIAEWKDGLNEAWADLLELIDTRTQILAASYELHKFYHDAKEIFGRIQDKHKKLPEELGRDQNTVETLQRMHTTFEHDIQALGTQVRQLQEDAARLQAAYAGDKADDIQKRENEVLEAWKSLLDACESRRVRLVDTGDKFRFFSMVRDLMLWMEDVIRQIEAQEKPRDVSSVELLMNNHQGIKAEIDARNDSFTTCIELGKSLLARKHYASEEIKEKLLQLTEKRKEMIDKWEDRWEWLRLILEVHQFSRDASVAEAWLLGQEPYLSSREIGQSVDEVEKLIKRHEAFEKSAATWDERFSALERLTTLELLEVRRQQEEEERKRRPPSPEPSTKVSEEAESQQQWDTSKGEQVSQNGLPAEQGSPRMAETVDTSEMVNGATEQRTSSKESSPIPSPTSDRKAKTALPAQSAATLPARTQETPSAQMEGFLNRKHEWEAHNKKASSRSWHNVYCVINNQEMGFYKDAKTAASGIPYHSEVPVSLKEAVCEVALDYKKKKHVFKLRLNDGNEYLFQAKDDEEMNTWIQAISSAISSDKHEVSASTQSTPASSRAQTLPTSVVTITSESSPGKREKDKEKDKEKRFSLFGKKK

B1: LUC7L3 (protein, UniProt O95232 1-432)
chain: MISAAQLLDELMGRDRNLAPDEKRSNVRWDHESVCKYYLCGFCPAELFTNTRSDLGPCEKIHDENLRKQYEKSSRFMKVGYERDFLRYLQSLLAEVERRIRRGHARLALSQNQQSSGAAGPTGKNEEKIQVLTDKIDVLLQQIEELGSEGKVEEAQGMMKLVEQLKEERELLRSTTSTIESFAAQEKQMEVCEVCGAFLIVGDAQSRVDDHLMGKQHMGYAKIKATVEELKEKLRKRTEEPDRDERLKKEKQEREEREKEREREREERERKRRREEEEREKERARDRERRKRSRSRSRHSSRTSDRRCSRSRDHKRSRSRERRRSRSRDRRRSRSHDRSERKHRSRSRDRRRSKSRDRKSYKHRSKSRDREQDRKSKEKEKRGSDDKKSSVKSGSREKQSEDTNTESKESDTKNEVNGTSEDIKSEGDTQSN
B2: CCDC124 (protein, UniProt Q96CT7 1-223)
chain: MPKKFQGENTKSAAARARRAEAKAAADAKKQKELEDAYWKDDDKHVMRKEQRKEEKEKRRLDQLERKKETQRLLEEEDSKLKGGKAPRVATSSKVTRAQIEDTLRRDHQLREAPDTAEKAKSHLEVPLEENVNRRVLEEGSVEARTIEDAIAVLSVAEEAADRHPERRMRAAFTAFEEAQLPRLKQENPNMRLSQLKQLLKKEWLRSPDNPMNQRAVPFNAPK
B3: ILF3 (protein, UniProt Q12906 1-894)
chain: MRPMRIFVNDDRHVMAKHSSVYPTQEELEAVQNMVSHTERALKAVSDWIDEQEKGSSEQAESDNMDVPPEDDSKEGAGEQKTEHMTRTLRGVMRVGLVAKGLLLKGDLDLELVLLCKEKPTTALLDKVADNLAIQLAAVTEDKYEILQSVDDAAIVIKNTKEPPLSLTIHLTSPVVREEMEKVLAGETLSVNDPPDVLDRQKCLAALASLRHAKWFQARANGLKSCVIVIRVLRDLCTRVPTWGPLRGWPLELLCEKSIGTANRPMGAGEALRRVLECLASGIVMPDGSGIYDPCEKEATDAIGHLDRQQREDITQSAQHALRLAAFGQLHKVLGMDPLPSKMPKKPKNENPVDYTVQIPPSTTYAITPMKRPMEEDGEEKSPSKKKKKIQKKEEKAEPPQAMNALMRLNQLKPGLQYKLVSQTGPVHAPIFTMSVEVDGNSFEASGPSKKTAKLHVAVKVLQDMGLPTGAEGRDSSKGEDSAEETEAKPAVVAPAPVVEAVSTPSAAFPSDATAEQGPILTKHGKNPVMELNEKRRGLKYELISETGGSHDKRFVMEVEVDGQKFQGAGSNKKVAKAYAALAALEKLFPDTPLALDANKKKRAPVPVRGGPKFAAKPHNPGFGMGGPMHNEVPPPPNLRGRGRGGSIRGRGRGRGFGGANHGGYMNAGAGYGSYGYGGNSATAGYSQFYSNGGHSGNASGGGGGGGGGSSGYGSYYQGDNYNSPVPPKHAGKKQPHGGQQKPSYGSGYQSHQGQQQSYNQSPYSNYGPPQGKQKGYNHGQGSYSYSNSYNSPGGGGGSDYNYESKFNYSGSGGRSGGNSYGSGGASYNPGSHGGYGGGSGGGSSYQGKQGGYSQSNYNSPGSGQNYSGPPSSYQSSQGGYGRNADHSMNYQYR
B4: PA2G4 (protein, UniProt Q9UQ80 1-394)
chain: MSGEDEQQEQTIAEDLVVTKYKMGGDIANRVLRSLVEASSSGVSVLSLCEKGDAMIMEETGKIFKKEKEMKKGIAFPTSISVNNCVCHFSPLKSDQDYILKEGDLVKIDLGVHVDGFIANVAHTFVVDVAQGTQVTGRKADVIKAAHLCAEAALRLVKPGNQNTQVTEAWNKVAHSFNCTPIEGMLSHQLKQHVIDGEKTIIQNPTDQQKKDHEKAEFEVHEVYAVDVLVSSGEGKAKDAGQRTTIYKRDPSKQYGLKMKTSRAFFSEVERRFDAMPFTLRAFEDEKKARMGVVECAKHELLQPFNVLYEKEGEFVAQFKFTVLLMPNGPMRITSGPFEPDLYKSEMEVQDAELKALLQSSASRKTQKKKKKKASKTAENATSGETLEENEAGD
B5: RRP1B (protein, UniProt Q14684 1-758)
chain: MAPAMQPAEIQFAQRLASSEKGIRDRAVKKLRQYISVKTQRETGGFSQEELLKIWKGLFYCMWVQDEPLLQEELANTIAQLVHAVNNSAAQHLFIQTFWQTMNREWKGIDRLRLDKYYMLIRLVLRQSFEVLKRNGWEESRIKVFLDVLMKEVLCPESQSPNGVRFHFIDIYLDELSKVGGKELLADQNLKFIDPFCKIAAKTKDHTLVQTIARGVFEAIVDQSPFVPEETMEEQKTKVGDGDLSAEEIPENEVSLRRAVSKKKTALGKNHSRKDGLSDERGRDDCGTFEDTGPLLQFDYKAVADRLLEMTSRKNTPHFNRKRLSKLIKKFQDLSEGSSISQLSFAEDISADEDDQILSQGKHKKKGNKLLEKTNLEKEKGSRVFCVEEEDSESSLQKRRRKKKKKHHLQPENPGPGGAAPSLEQNRGREPEASGLKALKARVAEPGAEATSSTGEESGSEHPPAVPMHNKRKRPRKKSPRAHREMLESAVLPPEDMSQSGPSGSHPQGPRGSPTGGAQLLKRKRKLGVVPVNGSGLSTPAWPPLQQEGPPTGPAEGANSHTTLPQRRRLQKKKAGPGSLELCGLPSQKTASLKKRKKMRVMSNLVEHNGVLESEAGQPQALGSSGTCSSLKKQKLRAESDFVKFDTPFLPKPLFFRRAKSSTATHPPGPAVQLNKTPSSSKKVTFGLNRNMTAEFKKTDKSILVSPTGPSRVAFDPEQKPLHGVLKTPTSSPASSPLVAKKPLTTTPRRRPRAMDFF
B6: LCOR (protein, UniProt Q96JN0 1-433)
chain: MQRMIQQFAAEYTSKNSSTQDPSQPNSTKNQSLPKASPVTTSPTAATTQNPVLSKLLMADQDSPLDLTVRKSQSEPSEQDGVLDLSTKKSPCAGSTSLSHSPGCSSTQGNGRPGRPSQYRPDGLRSGDGVPPRSLQDGTREGFGHSTSLKVPLARSLQISEELLSRNQLSTAASLGPSGLQNHGQHLILSREASWAKPHYEFNLSRMKFRGNGALSNISDLPFLAENSAFPKMALQAKQDGKKDVSHSSPVDLKIPQVRGMDLSWESRTGDQYSYSSLVMGSQTESALSKKLRAILPKQSRKSMLDAGPDSWGSDAEQSTSGQPYPTSDQEGDPGSKQPRKKRGRYRQYNSEILEEAISVVMSGKMSVSKAQSIYGIPHSTLEYKVKERLGTLKNPPKKKMKLMRSEGPDVSVKIELDPQGEAAQSANESKNE
B7: MTDH (protein, UniProt Q86UE4 1-582)
chain: MAARSWQDELAQQAEEGSARLREMLSVGLGFLRTELGLDLGLEPKRYPGWVILVGTGALGLLLLFLLGYGWAAACAGARKKRRSPPRKREEAAAVPAAAPDDLALLKNLRSEEQKKKNRKKLSEKPKPNGRTVEVAEGEAVRTPQSVTAKQPPEIDKKNEKSKKNKKKSKSDAKAVQNSSRHDGKEVDEGAWETKISHREKRQQRKRDKVLTDSGSLDSTIPGIENTITVTTEQLTTASFPVGSKKNKGDSHLNVQVSNFKSGKGDSTLQVSSGLNENLTVNGGGWNEKSVKLSSQISAGEEKWNSVSPASAGKRKTEPSAWSQDTGDANTNGKDWGRSWSDRSIFSGIGSTAEPVSQSTTSDYQWDVSRNQPYIDDEWSGLNGLSSADPNSDWNAPAEEWGNWVDEERASLLKSQEPIPDDQKVSDDDKEKGEGALPTGKSKKKKKKKKKQGEDNSTAQDTEELEKEIREDLPVNTSKTRPKQEKAFSLKTISTSDPAEVLVKNSQPIKTLPPATSTEPSVILSKSDSDKSSSQVPPILQETDKSKSNTKQNSVPPSQTKSETSWESPKQIKKKKKARRET
B8: LRRFIP1 (protein, UniProt Q32MZ4 1-808)
chain: MTSPAAAQSREIDCLSPEAQKLAEARLAAKRAARAEAREIRMKELERQQKEEDSERYSRRSRRNTSASDEDERMSVGSRGSLRVEERPEKDFTEKGSRNMPGLSAATLASLGGTSSRRGSGDTSISIDTEASIREIKELNELKDQIQDVEGKYMQGLKEMKDSLAEVEEKYKKAMVSNAQLDNEKTNFMYQVDTLKDMLLELEEQLAESRRQYEEKNKEFEREKHAHSILQFQFAEVKEALKQREEMLEKHGIILNSEIATNGETSDTLNNVGYQGPTKMTKEELNALKSTGDGTLGRASEVEVKNEIVANVGKREILHNTEKEQHTEDTVKDCVDIEVFPAGENTEDQKSSEDTAPFLGTLAGATYEEQVQSQILESSSLPENTVQVESNEVMGAPDDRTRTPLEPSNCWSDLDGGNHTENVGEAAVTQVEEQAGTVASCPLGHSDDTVYHDDKCMVEVPQELETSTGHSLEKEFTNQEAAEPKEVPAHSTEVGRDHNEEEGEETGLRDEKPIKTEVPGSPAGTEGNCQEATGPSTVDTQNEPLDMKEPDEEKSDQQGEALDSSQKKTKNKKKKNKKKKSPVPVETLKDVKKELTYQNTDLSEIKEEEQVKSTDRKSAVEAQNEVTENPKQKIAAESSENVDCPENPKIKLDGKLDQEGDDVQTAAEEVLADGDTLDFEDDTVQSSGPRAGGEELDEGVAKDNAKIDGATQSSPAEPKSEDADRCTLPEHESPSQDISDACEAESTERCEMSEHPSQTVRKALDSNSLENDDLSAPGREPGHFNPESREDTRGGNEKGKSKEDCTMS

The molecules below were run against EZH2 (Enhancer of zeste homology 2) (human (endogenous in HL-60)) (UniProt Q15910) (assay: affinity purification with mass spectrometry; immunoprecipitation of native, untagged EZH2 from HL-60 lysates (untreated, or stimulated with 0.1 µM AtRA) with anti-EZH2 antibodies (Abcam ab186006; Cell Signaling clone AC22) on protein A/G magnetic beads, overnight at 4 °C, against IgG isotype controls; LC-MS/MS; hits filtered by fold change over IgG, CRAPome and SAINTexpress).
With AICDA (from UniProt Q9GZX7 1-198) the binding was “binds”.
For ANPEP (from UniProt P15144 1-967), the binding was “binds”.
In the case of ATP5A1 (from UniProt P25705 44-553), the binding is reported as “binds”.
In the case of “CBX3 (Chromobox 3) (from UniProt Q13185 1-183)”, the binding is reported as “binds”.
CORO1A (from UniProt P31146 1-461) was tested, and the binding was “binds”.
With DDX5 (from UniProt P17844 1-614) the binding was “binds”.
DMAP1 (from UniProt Q9NPF5 1-467) was tested, and the binding was “binds”.
For EPOP (from UniProt A6NHQ4 1-379), the binding was “binds”.
For FLNA (from UniProt P21333 1-2647), the binding was “binds”.
With HNRNPH1 (from UniProt P31943 1-449) the binding was “binds”.
For HNRNPK (from UniProt P61978 1-463), the binding was “binds”.
For MSN (from UniProt P26038 1-577), the binding was “binds”.
For MTF2 (from UniProt Q9Y483 1-593), the binding was “binds”.
NOLC1 (from UniProt Q14978 1-699) was tested, and the binding was “binds”.
PABPC1 (from UniProt P11940 1-636) was tested, and the binding was “binds”.
In the case of PARP1 (from UniProt P09874 1-1014), the binding is reported as “binds”.
For PHF1 (from UniProt O43189 1-567), the binding was “binds”.
For PTBP1 (from UniProt P26599 1-557), the binding was “binds”.
In the case of RPLP1 (from UniProt P05386 1-114), the binding is reported as “binds”.
With RPLP2 (from UniProt P05387 1-115) the binding was “binds”.
In the case of SND1 (from UniProt Q7KZF4 1-910), the binding is reported as “binds”.
In the case of SPTB2 (from UniProt Q01082 1-2364), the binding is reported as “binds”.
With YBX1 (from UniProt P67809 1-324) the binding was “binds”.
For “eEF1A1 (Elongation factor 1-α1) (from UniProt P68104 1-462)”, the binding was “binds”.
For B1, the binding was “binds”.
B2 was tested, and the binding was “binds”.
B3 was tested, and the binding was “binds”.
B4 was tested, and the binding was “binds”.
B5 was tested, and the binding was “binds”.
In the case of B6, the binding is reported as “binds”.
B7 was tested, and the binding was “binds”.
B8 was tested, and the binding was “binds”.
